Some peptides are written in HELM: one residue between dots, names in brackets for other building blocks, links after the first $.
Assay: peptide synthesis
Details: cyclisation step

PEPTIDE1{C.D.A.S.C.C.I.R.E.I.S.L.L.C.E.Y.C.G.C.[am]}|CHEM1{[TMB]}|CHEM2{[TMB]}$PEPTIDE1,CHEM1,1:R3-1:R1|PEPTIDE1,CHEM1,5:R3-1:R2|PEPTIDE1,CHEM1,6:R3-1:R3|PEPTIDE1,CHEM2,14:R3-1:R1|PEPTIDE1,CHEM2,17:R3-1:R2|PEPTIDE1,CHEM2,19:R3-1:R3$$$V2.0
difficulty met (run 1): many products were formed (Figure S1)
difficulty met (run 2): but this also gave many products (Figure S2b)

— article PMC11027154 (Journal of the American Chemical Society, 2024)
